Results taken from paper PMC4583457.
No constants are given. Whether binding was seen depends on the method and setting. Binding seen in cells or lysates may run through a third protein. Some entries that bind do so weakly or less than the wild type.

Columns and labels:
[1] = biological target: T1, myelin protein zero (P0), endogenous in adult mouse sciatic nerve (mouse (endogenous in sciatic nerve)) (UniProt P27573); test: co-IP; IP with 2 ug chicken anti-P0 antibody on PrecipHen beads from adult control littermate mouse sciatic nerve lysates (8 wk post-tamoxifen); blot with pan-NFasc antibody; chicken IgY as negative control
T1 sequence: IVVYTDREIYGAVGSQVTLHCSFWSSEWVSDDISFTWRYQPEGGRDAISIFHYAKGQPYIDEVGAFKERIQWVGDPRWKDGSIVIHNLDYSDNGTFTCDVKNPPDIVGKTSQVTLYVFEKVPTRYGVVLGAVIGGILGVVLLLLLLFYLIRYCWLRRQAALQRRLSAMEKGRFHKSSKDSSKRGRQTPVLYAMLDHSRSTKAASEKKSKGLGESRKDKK

[2] = biological target: T1, myelin protein zero (P0), endogenous in adult mouse sciatic nerve (mouse (endogenous in sciatic nerve)); test: co-IP; as a2, but from sciatic nerve lysates of HDAC1/2 dKO mice at 8 wk post-tamoxifen (P0 levels reduced)

- binding [1]: binds
- binding [2]: binds weakly
B1: NFasc186, endogenous in adult mouse sciatic nerve (protein, UniProt Q810U3 25-1240)
chain: IEIPMDPSIQNELTQPPTITKQSVKDHIVDPRDNILIECEAKGNPAPSFHWTRNSRFFNIAKDPRVSMRRRSGTLVIDFRSGGRPEEYEGEYQCFARNKFGTALSNRIRLQVSKSPLWPKENLDPVVVQEGAPLTLQCNPPPGLPSPVIFWMSSSMEPITQDKRVSQGHNGDLYFSNVMLQDMQTDYSCNARFHFTHTIQQKNPFTLKVLTTRGVAERTPSFMYPQGTSSSQMVLRGMDLLLECIASGVPTPDIAWYKKGGDLPSNKAKFENFNKALRITNVSEEDSGEYFCLASNKMGSIRHTISVRVKAAPYWLDEPKNLILAPGEDGRLVCRANGNPKPTVQWMVNGEPLQSAPPNPNREVAGDTIIFRDTQISSRAVYQCNTSNEHGYLLANAFVSVLDVPPRMLSARNQLIRVILYNRTRLDCPFFGSPIPTLRWFKNGQGSNLDGGNYHVYENGSLEIKMIRKEDQGIYTCVATNILGKAENQVRLEVKDPTRIYRMPEDQVAKRGTTVQLECRVKHDPSLKLTVSWLKDDEPLYIGNRMKKEDDSLTIFGVAERDQGSYTCMASTELDQDLAKAYLTVLADQATPTNRLAALPKGRPDRPRDLELTDLAERSVRLTWIPGDDNNSPITDYVVQFEEDQFQPGVWHDHSRFPGSVNSAVLHLSPYVNYQFRVIAVNEVGSSHPSLPSERYRTSGAPPESNPSDVKGEGTRKNNMEITWTPMNATSAFGPNLRYIVKWRRRETRETWNNVTVWGSRYVVGQTPVYVPYEIRVQAENDFGKGPEPDTIIGYSGEDLPSAPRRFRVRQPNLETINLEWDHPEHPNGILIGYILRYVPFNGTKLGKQMVENFSPNQTKFSVQRADPVSRYRFSLSARTQVGSGEAATEESPAPPNEATPTAAPPTLPPTTVGTTGLVSSTDATALAATSEATTVPIIPTVVPTTVATTIATTTTTTAATTTTTTTESPPTTTAGTKIHETAPDEQSIWNVTVLPNSKWANITWKHNFRPGTDFVVEYIDSNHTKKTVPVKAQAQPIQLTDLFPGMTYTLRVYSRDNEGISSTVITFMTSTAYTNNQADIATQGWFIGLMCAIALLVLILLIVCFIKRSRGGKYPVREKKDVPLGPEDPKEEDGSFDYSDEDNKPLQGSQTSLDGTIKQQESDDSLVDYGEGGEGQFNEDGSFIGQYTVKKDKEETEGNESSEATSPVNAIYSLA
